Measurements as given in paper PMC6307784.
Construct, isoform or probe ends are uncertain for at least one entry. Protein sequences can lack the tags named with them.

Biological target: T1, NhaR-His6 (Escherichia coli) (UniProt P0A9G2)
T1 sequence (looked up, limits assumed): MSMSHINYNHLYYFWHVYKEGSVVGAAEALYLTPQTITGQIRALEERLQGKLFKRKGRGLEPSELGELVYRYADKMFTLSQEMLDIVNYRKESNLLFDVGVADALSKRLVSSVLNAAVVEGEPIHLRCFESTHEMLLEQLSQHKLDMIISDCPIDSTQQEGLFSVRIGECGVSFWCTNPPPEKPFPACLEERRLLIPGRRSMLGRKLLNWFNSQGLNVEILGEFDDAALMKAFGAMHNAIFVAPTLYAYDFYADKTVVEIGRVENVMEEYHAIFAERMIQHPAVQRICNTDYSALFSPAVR
Experiment: EMSA
Details: shifted at 125 and 250 nM NhaR, bigger shifts at higher concentrations; LightShift Chemiluminescent EMSA Kit (Pierce) as per manufacturer, 5% PAGE; pH and temperature not stated; recombinant protein; protein details: His6; probe letters rebuilt from the primers and the genome

AAAGGTACCGAGCGTGATATCGGCAGTGCTATAAAATACGTTAATATAATGACCAATAAATATTTTTATCATGAATGTTTTTTGCCCGTATTGTTCGGGTTAATTAATGTTACATATTCAGCGGGCTGATTTTCATTTTTGCTGAATAAAGTCAATTTTTGTCACATTTCATCGTAGGGCTTACTGTGAAACGATCCGGTAAGCCGTTGGTGACGGGCGTGACCATAACTGTGGACAATCGAATTGACAAAAACGAGAGAAAAATCGAATACCCACCATTTTTAACGTTTCAAAGTTGCAATAAAAACCGCTAATATACGAATGACTAACTATCAGTAGCGTTATCCCTATTTCTGGAGATATTCCTTTGATCAACGTTCTACTTGTTGATGACCAC (double strand) [uvrY promoter 388 bp (-358 to +30)]
binding result: binds
